Data reported in patent US10759783B2, “Biaryl inhibitors of Bruton'S tyrosine kinase” (BIOGEN MA INC., priority 2013, dated 2020).
The structures given here were assigned with low confidence; some may be wrong.

The chains behind the UniProt entries cited, without tags or fusion partners.
UniProt Q06187, whole entry: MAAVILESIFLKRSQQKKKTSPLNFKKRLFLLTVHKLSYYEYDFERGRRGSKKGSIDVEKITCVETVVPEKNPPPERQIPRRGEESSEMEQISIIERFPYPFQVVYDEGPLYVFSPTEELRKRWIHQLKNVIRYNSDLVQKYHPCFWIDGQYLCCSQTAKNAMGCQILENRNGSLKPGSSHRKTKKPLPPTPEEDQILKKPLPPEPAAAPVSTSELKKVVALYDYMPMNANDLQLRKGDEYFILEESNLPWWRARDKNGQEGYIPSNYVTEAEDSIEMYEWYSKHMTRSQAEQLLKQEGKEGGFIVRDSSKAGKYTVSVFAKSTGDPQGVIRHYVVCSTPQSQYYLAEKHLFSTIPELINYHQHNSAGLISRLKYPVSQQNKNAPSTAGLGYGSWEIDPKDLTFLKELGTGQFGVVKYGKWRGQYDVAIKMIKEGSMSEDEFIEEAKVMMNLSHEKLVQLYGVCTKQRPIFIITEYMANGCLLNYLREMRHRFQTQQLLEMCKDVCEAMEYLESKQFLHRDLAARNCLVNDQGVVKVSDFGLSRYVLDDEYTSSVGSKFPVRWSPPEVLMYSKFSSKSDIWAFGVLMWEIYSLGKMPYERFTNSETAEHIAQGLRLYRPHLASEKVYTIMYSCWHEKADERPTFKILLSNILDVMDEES

What was measured:
BTK enzyme = BTK enzyme (Homo sapiens, UniProt Q06187); test: In vitro BTK kinase assay: BTK-POLYGAT-LS assay; type: biochemical; details: read-out: IC50 (10uMATP), ATP 10 μM
[1] = molecular target: BTK (phospho-BTK) in human whole blood (Homo sapiens, UniProt Q06187); test: In vitro PD assay in human whole blood (pBTK assay); details: read-out: pBTK IC50, 37° C. for 30 min

Cc1cc(-c2ccnc(Nc3cnn(C4CN(C)C4)c3)n2)ccc1CN1CCN(CC(C)C)CC1=O
IC50 (BTK enzyme): < 10 nM | IC50 [1]: < 500 nM
